Laboratory results: PubChem BioAssay AID1224828 (NIAID, 2016)
Shown is an unselected part of about 17,000 deposited reagents. Of all reagents, 762 (4.5%) are marked active. 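Active calls include both raised and lowered p65 entry, mostly lowered; wells with fewer than 50 cells lack a z-score.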 Raw values vary from plate to plate and are shown uncorrected. Entries without a mark were called inactive. Reagents against one gene are numbered here. Some reagents were tested in more than one well and are listed for each.

Test: 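Regulators linking TLR4 signalling to p65 nuclear translocation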 (primary screen)
System: mouse RAW264.7 G9 macrophage reporter cells (GFP-p65, Tnf promoter-mCherry)
Reagents: siRNA pool against mouse genes, 100 nM
Timing: 2 days siRNA transfection, then 40 min LPS before fixation
Treatment: LPS (Salmonella minnesota R595) at 10 ng/ml
Detection: 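Imaged p65 nuclear translocation ratio, normalised to the plate median, converted to robust z-scores and averaged across two replicates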
Direction: p65 translocation robust z-score: higher = more nuclear NF-kappaB p65 after LPS than the plate median; nuclear/cytoplasmic p65 ratio: higher = more nuclear NF-kappaB p65
Rule for the call: 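Active if robust z is above 3.3 (negative regulators) or below -1.56, the Tlr4 control median (positive regulators); activity score 50 or more; control wells not called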
Meaning of the calls: active = hit (p65 shift raised or lowered); inactive = no clear change

The opening 7 entries as a preview:
gene | pool no. | p65 translocation robust z-score | nuclear/cytoplasmic p65 ratio, rep 1 | nuclear/cytoplasmic p65 ratio, rep 2 | low cell count flag
Edn1 (endothelin 1) | 1 | -0.09 | 1.73 | 1.34 | enough cells to score
Slc38a3 | 1 | – | 1.35 | 1.07 | fewer than 50 cells per well; well left out of scoring
Casq1 (calsequestrin 1) | 1 | 0.06 | 1.59 | 1.65 | enough cells to score
Acsf2 (acyl-CoA synthetase family member 2) | 1 | -1.17 | 1.46 | 1.58 | enough cells to score
Hnrnpab (heterogeneous nuclear ribonucleoprotein A/B) | 1 | -0.69 | 1.39 | 1.58 | enough cells to score
Tmem143 (transmembrane protein 143) | 1 | – | 1.42 | 1.32 | fewer than 50 cells per well; well left out of scoring
Prr14 (proline rich 14) | 1 | -1.31 | 1.31 | 1.71 | enough cells to score

Results, from the start:
gene | pool no. | p65 translocation robust z-score | nuclear/cytoplasmic p65 ratio, rep 1 | nuclear/cytoplasmic p65 ratio, rep 2 | low cell count flag
Edn1 (endothelin 1) | 1 | -0.09 | 1.73 | 1.34 | enough cells to score
Slc38a3 | 1 | – | 1.35 | 1.07 | fewer than 50 cells per well; well left out of scoring
Casq1 (calsequestrin 1) | 1 | 0.06 | 1.59 | 1.65 | enough cells to score
Acsf2 (acyl-CoA synthetase family member 2) | 1 | -1.17 | 1.46 | 1.58 | enough cells to score
Hnrnpab (heterogeneous nuclear ribonucleoprotein A/B) | 1 | -0.69 | 1.39 | 1.58 | enough cells to score
Tmem143 (transmembrane protein 143) | 1 | – | 1.42 | 1.32 | fewer than 50 cells per well; well left out of scoring
Prr14 (proline rich 14) | 1 | -1.31 | 1.31 | 1.71 | enough cells to score
Slc16a1 | 1 | 0.67 | 1.55 | 1.68 | enough cells to score
Pdgfd (platelet-derived growth factor, D polypeptide) | 1 | – | 1.15 | 0.985 | fewer than 50 cells per well; well left out of scoring
Dlgap2 (DLG associated protein 2) | 1 | -1.6 (active) | 1.23 | 1.3 | enough cells to score
Pcdhgc3 (protocadherin gamma subfamily C, 3) | 1 | -0.63 | 1.42 | 1.11 | enough cells to score
Map3k7 (mitogen-activated protein kinase kinase kinase 7) | 1 | 0.26 | 2.12 | 1.41 | enough cells to score
Stab2 (stabilin 2) | 1 | 2.92 | 1.84 | 1.53 | enough cells to score
Tnnt3 (troponin T3, skeletal, fast) | 1 | – | 0 | 1.04 | fewer than 50 cells per well; well left out of scoring
Ipmk (inositol polyphosphate multikinase) | 1 | 0.4 | 1.8 | 1.39 | enough cells to score
Fzd3 (frizzled class receptor 3) | 1 | -1.01 | 1.36 | 1.44 | enough cells to score
Slc24a5 | 1 | – | 1.47 | 1.42 | fewer than 50 cells per well; well left out of scoring
Nrde2 (nrde-2 necessary for RNA interference, domain containing) | 1 | -0.62 | 1.52 | 1.7 | enough cells to score
Samt4 (spermatogenesis associated multipass transmembrane protein 4) | 1 | 1.74 | 1.44 | 1.54 | enough cells to score
Atf2 (activating transcription factor 2) | 1 | -0.05 | 1.56 | 1.66 | enough cells to score
Sfxn4 (sideroflexin 4) | 1 | – | 1.35 | 1.33 | fewer than 50 cells per well; well left out of scoring
Pigb (phosphatidylinositol glycan anchor biosynthesis, class B) | 1 | -1.08 | 1.3 | 1.12 | enough cells to score
Cdc42ep3 (CDC42 effector protein 3) | 1 | 0.75 | 1.59 | 1.46 | enough cells to score
Mplkip (M-phase specific PLK1 intereacting protein) | 1 | 2.49 | 1.73 | 1.79 | enough cells to score
Magi3 | 1 | 1.29 | 1.47 | 1.55 | enough cells to score
Magi3 | 1 | – | 1.57 | 1.41 | fewer than 50 cells per well; well left out of scoring
Kcna1 | 1 | -0.4 | 1.44 | 1.31 | enough cells to score
C9 (complement component 9) | 1 | -1.36 | 1.42 | 1.41 | enough cells to score
Nphp1 (nephronophthisis 1 (juvenile) homolog (human)) | 1 | -0.97 | 1.37 | 1.23 | enough cells to score
Chst14 (carbohydrate sulfotransferase 14) | 1 | -2.13 (active) | 1.21 | 1.29 | enough cells to score
Lrig3 (leucine-rich repeats and immunoglobulin-like domains 3) | 1 | -0.69 | 1.33 | 1.45 | enough cells to score
Plgrkt | 1 | -1.72 (active) | 1.25 | 1.23 | enough cells to score
Sppl2b (signal peptide peptidase like 2B) | 1 | 0.04 | 1.29 | 1.21 | enough cells to score
Zbtb32 (zinc finger and BTB domain containing 32) | 1 | 0.31 | 1.55 | 1.57 | enough cells to score
Cacng6 (calcium channel, voltage-dependent, gamma subunit 6) | 1 | -1.14 | 1.45 | 1.57 | enough cells to score
Abca8a (ATP-binding cassette, sub-family A member 8a) | 1 | 1.12 | 1.66 | 1.97 | enough cells to score
Afg1l (AFG1 like ATPase) | 1 | 0.57 | 1.59 | 1.55 | enough cells to score
Pkhd1 (polycystic kidney and hepatic disease 1) | 1 | 0.92 | 1.53 | 1.61 | enough cells to score
Rab8a (RAB8A, member RAS oncogene family) | 1 | 1.14 | 1.57 | 1.78 | enough cells to score
Mul1 (mitochondrial ubiquitin ligase activator of NFKB 1) | 1 | – | 1.27 | 1.28 | fewer than 50 cells per well; well left out of scoring
Pdxk (pyridoxal (pyridoxine, vitamin B6) kinase) | 1 | 1.3 | 1.96 | 1.49 | enough cells to score
Cox4i1 (cytochrome c oxidase subunit 4I1) | 1 | 1.12 | 1.63 | 2.09 | enough cells to score
Oog4 (oogenesin 4) | 1 | 2.65 | 1.8 | 1.26 | enough cells to score
Pdcd2 (programmed cell death 2) | 1 | -0.23 | 1.45 | 1.35 | enough cells to score
Sgms2 (sphingomyelin synthase 2) | 1 | – | 1.2 | 1.27 | fewer than 50 cells per well; well left out of scoring
Fnbp4 (formin binding protein 4) | 1 | 1.72 | 1.74 | 1.79 | enough cells to score
Yes1 (YES proto-oncogene 1, Src family tyrosine kinase) | 1 | -0.12 | 1.63 | 1.4 | enough cells to score
Nop53 (NOP53 ribosome biogenesis factor) | 1 | -0.96 | 1.32 | 1.25 | enough cells to score
Ctsg (cathepsin G) | 1 | 0.75 | 1.59 | 1.46 | enough cells to score
Tusc3 (tumor suppressor candidate 3) | 1 | 0.02 | 1.53 | 1.5 | enough cells to score
Rgs17 (regulator of G-protein signaling 17) | 1 | 0.12 | 1.5 | 1.57 | enough cells to score
Rrp8 (ribosomal RNA processing 8) | 1 | 0.16 | 1.52 | 1.51 | enough cells to score
Try4 (trypsin 4) | 1 | -0.96 | 1.27 | 1.11 | enough cells to score
Zhx3 (zinc fingers and homeoboxes 3) | 1 | -1.34 | 1.29 | 1.09 | enough cells to score
Adam15 (ADAM metallopeptidase domain 15) | 1 | -0.78 | 1.48 | 1.52 | enough cells to score
Kiss1 (KiSS-1 metastasis-suppressor) | 1 | -0.53 | 1.42 | 1.3 | enough cells to score
Senp7 (SUMO1/sentrin specific peptidase 7) | 1 | 2.09 | 1.44 | 1.5 | enough cells to score
Pdgfrb (platelet derived growth factor receptor, beta polypeptide) | 1 | -0.35 | 1.55 | 1.4 | enough cells to score
Trim13 (tripartite motif-containing 13) | 1 | 1.14 | 1.64 | 1.69 | enough cells to score
Wwtr1 (WW domain containing transcription regulator 1) | 1 | – | 1.25 | 1.29 | fewer than 50 cells per well; well left out of scoring
Cmbl (carboxymethylenebutenolidase homolog) | 1 | 0.44 | 1.67 | 1.69 | enough cells to score
Clcf1 (cardiotrophin-like cytokine factor 1) | 1 | -0.12 | 1.59 | 1.6 | enough cells to score
Tnpo1 (transportin 1) | 1 | 0.05 | 1.52 | 1.53 | enough cells to score
Krtap21-1 (keratin associated protein 21-1) | 1 | 0.09 | 1.56 | 1.46 | enough cells to score
Krtap21-1 (keratin associated protein 21-1) | 2 | -0.8 | 1.45 | 1.31 | enough cells to score
Pdlim7 (PDZ and LIM domain 7) | 1 | -0.86 | 1.26 | 1.2 | enough cells to score
Timm29 (translocase of inner mitochondrial membrane 29) | 1 | – | 1.58 | 1.32 | fewer than 50 cells per well; well left out of scoring
Mrps35 (mitochondrial ribosomal protein S35) | 1 | -1.14 | 1.66 | 1.37 | enough cells to score
Frat2 (frequently rearranged in advanced T cell lymphomas 2) | 1 | -0.78 | 1.35 | 1.25 | enough cells to score
Gpr82 (G protein-coupled receptor 82) | 1 | 0.93 | 1.64 | 1.71 | enough cells to score
Slc16a4 | 1 | 1.62 | 1.65 | 1.41 | enough cells to score
Slc35a2 | 1 | – | 1.6 | 1.24 | fewer than 50 cells per well; well left out of scoring
Cyld (CYLD lysine 63 deubiquitinase) | 1 | -0.29 | 1.38 | 1.39 | enough cells to score
Gm9725 (predicted gene 9725) | 1 | 1.04 | 1.26 | 1.51 | enough cells to score
Entpd7 (ectonucleoside triphosphate diphosphohydrolase 7) | 1 | 0.4 | 1.66 | 1.51 | enough cells to score
